Results are given in words; binding and its absence hold for the method and conditions named. Tags and fused reporters may be left off the sequences shown.
Target: human myeloid-derived growth factor (bacteria-derived, 6xHis-tag removed) (human) (UniProt Q969H8)
Assay: NMR 15N relaxation (rotational correlation time from T1 and T2); 13C, 15N hMYDGF 508 µM in PBS pH 6, 298 K; same sample as for structure determination; τc 9.4 ns from average T1 and T2 of amides in secondary structure; both purified

B1: human myeloid-derived growth factor (bacteria-derived, 6xHis-tag removed) (protein, UniProt Q969H8 32-173)
chain: GSKGTVSEPTTVAFDVRPGGVVHSFSHNVGPGDKYTCMFTYASQGGTNEQWQMSLGTSEDHQHFTCTIWRPQGKSYLYFTQFKAEVRGAEIEYAMAYSKAAFERESDVPLKTEEFEVTKTAVAHRPGAFKAELSKLVIVAKASRTEL
modifications: disulfide bond C63-C92; uniformly 13C, 15N labelled
binding: no binding (tested: 508 µM)
